The supplement of paper PMC5949888
Most values lie at the floor of the assay. Slopes are relative: functional sequences can read slightly below zero.

These substances were tested on Saccharomyces cerevisiae PS128 hsf1 delta, HSF1(1-493) fusion (assay: growth estimate (transactivation domain function in HSF1 fusion, heat-shock survival) (a.u. (slope of normalised read count over time)); higher = stronger growth at 37°C, i.e. more transactivation activity). Settings: library: random library.
With VGQFWSGYISAKPLCMFIRC the growth estimate was under -0.25.
In the case of VGQIGESSEQIRIGNVWVAV, the growth estimate is reported as under -0.25.
VGQIWVQMRCRV gave a growth estimate of under -0.25.
VGQVFRKQLAESRRKQRNNK showed a growth estimate of under -0.25.
Work on VGQYRLHNLNTGVAGPTC yielded a growth estimate of under -0.25.
Work on VGRFFLNWTSVSAESWIQT yielded a growth estimate of under -0.25.
VGRGEFHTLGDRTGSFLPSS gave a growth estimate of under -0.25.
With VGRGRT the growth estimate was under -0.25.
Substance VGRPY has a growth estimate of under -0.25.
VGSARAGGPGCSVRATIA gave a growth estimate of under -0.25.
Work on VGSLCDDPLGGALLKLEAP yielded a growth estimate of under -0.25.
VGSQVDLRMTPEPSHSLFKP was tested, and the growth estimate was under -0.25.
Substance VGSRISIRARTIT has a growth estimate of under -0.25.
Work on VGSRSR yielded a growth estimate of under -0.25.
For VGSSLARYIPLAQNTIFG, the growth estimate was under -0.25.
Substance VGSVRFCLFSLRVAHRAFCC has a growth estimate of under -0.25.
In the case of VGSYTLR, the growth estimate is reported as under -0.25.
VGT gave a growth estimate of under -0.25.
Work on VGTFRYACRGTYGWLSVRAY yielded a growth estimate of under -0.25.
For VGTSPRVA, the growth estimate was under -0.25.
VGVCRCKQVHITTAFASARG was tested, and the growth estimate was under -0.25.
For VGVNGERAMEGGFLP, the growth estimate was under -0.25.
With VGVRLGGSHNYSKDNVFLIP the growth estimate was under -0.25.
With VGVRLYPIVF the growth estimate was under -0.25.
With VGWCWLSIHVTLPLEGESRA the growth estimate was under -0.25.
VGWV gave a growth estimate of under -0.25.
VGYKIYVMMRSDWW showed a growth estimate of under -0.25.
Substance VGYRVSCRVRIRQCGAVRRR has a growth estimate of under -0.25.
Work on VHACSFVGPFKTVRFHEAGG yielded a growth estimate of under -0.25.
VHANCS showed a growth estimate of under -0.25.
VHASAPWGSTEEDRTTANGL was tested, and the growth estimate was under -0.25.
For VHCWSCGCVKVRRFRFQLRA, the growth estimate was under -0.25.
In the case of VHDCGVDPCGSRGA, the growth estimate is reported as under -0.25.
In the case of VHFS, the growth estimate is reported as under -0.25.
Substance VHKGNGTYEPLS has a growth estimate of under -0.25.
Work on VHKSSDR yielded a growth estimate of under -0.25.
VHLRIFTN was tested, and the growth estimate was under -0.25.
For VHNSIITKG, the growth estimate was under -0.25.
For VHPNSLVPAKQVSAH, the growth estimate was under -0.25.
Work on VHPPCTPPSYTWLLGFCVQA yielded a growth estimate of under -0.25.
In the case of VHQDCYSGVLGTFREVVSRP, the growth estimate is reported as under -0.25.
In the case of VHRGIVMDSTRQGKCRGAVG, the growth estimate is reported as under -0.25.
Work on VHRRPAV yielded a growth estimate of under -0.25.
Work on VHSAFIWWY yielded a growth estimate of under -0.25.
Substance VHSGTSPVACRNASDNHTRA has a growth estimate of under -0.25.
With VHSLPPGS the growth estimate was under -0.25.
With VHSPLDLYIGNAYTLN the growth estimate was under -0.25.
For VHWENLPGTGSKPCQSERER, the growth estimate was under -0.25.
With VHWRANRFVRVVRAAP the growth estimate was under -0.25.
In the case of VHYILTLDRTV, the growth estimate is reported as under -0.25.
For VIALR, the growth estimate was under -0.25.
Work on VIATCSYLLAMCKMATELSG yielded a growth estimate of under -0.25.
VICSKFPAKRSTCDYLVFLG was tested, and the growth estimate was under -0.25.
Substance VIDGVRPSTVSESVRFLRFS has a growth estimate of under -0.25.
VIDLW showed a growth estimate of under -0.25.
Substance VIEKCGGRKDRTGNMMRHDT has a growth estimate of under -0.25.
VIGILTSGYGH gave a growth estimate of under -0.25.
In the case of VILEATRVNVQARGVWRRWL, the growth estimate is reported as under -0.25.
VILGQSLPYHSRYSAVGHST gave a growth estimate of under -0.25.
VILQSL gave a growth estimate of under -0.25.
VIPAIVTTQIHC showed a growth estimate of under -0.25.
Substance VIPLVPQ has a growth estimate of under -0.25.
With VIQATRATSEPVART the growth estimate was under -0.25.
Work on VIQV yielded a growth estimate of under -0.25.
VIRASH gave a growth estimate of under -0.25.
Substance VIRCRVPCGNGAVSRQVDSI has a growth estimate of under -0.25.
VIREPMESSVRYGFSCCRET gave a growth estimate of under -0.25.
With VIRHLTPTPSKRPPHVSVNG the growth estimate was under -0.25.
VIRSDCQF gave a growth estimate of -0.0584.
Substance VISDFRCRDGS has a growth estimate of under -0.25.
With VIVSGD the growth estimate was -0.231.
VIVSIFGGVDWYRITGDRNP was tested, and the growth estimate was under -0.25.
In the case of VIYKG, the growth estimate is reported as under -0.25.
In the case of VKES, the growth estimate is reported as under -0.25.
Substance VKGEQNTSRARDERLTGRHQ has a growth estimate of under -0.25.
VKILIFLHLGCRGLARGGQG was tested, and the growth estimate was under -0.25.
Substance VKLLAIVVG has a growth estimate of under -0.25.
In the case of VKLWTRLDVLRCDGSHGQLR, the growth estimate is reported as under -0.25.
With VKPLLDFALMTNRSQTSAPG the growth estimate was under -0.25.
VKR gave a growth estimate of under -0.25.
Substance VKRCMAN has a growth estimate of under -0.25.
With VKRFTEGPSISRRSTEPQTA the growth estimate was under -0.25.
In the case of VKRRLNLRERRTRTAG, the growth estimate is reported as under -0.25.
Work on VKSIFL yielded a growth estimate of under -0.25.
VKVIMYLCLWERRFFPGAL gave a growth estimate of under -0.25.
In the case of VKWLRERGIDQSLNRRGFG, the growth estimate is reported as under -0.25.
Substance VKYFVLNANPNFRKLVVEPS has a growth estimate of under -0.25.
Work on VLCE yielded a growth estimate of under -0.25.
VLCYLRLSGRPCSSTKRQVP showed a growth estimate of under -0.253.
Substance VLDDDEMRLLR has a growth estimate of under -0.25.
VLDVQPVSVRRFQLFRSWPD was tested, and the growth estimate was under -0.25.
For VLEPPSFGGGELEVPCNNSG, the growth estimate was under -0.25.
In the case of VLERGSSITVTPCAGSSRGI, the growth estimate is reported as under -0.25.
For VLESSCWR, the growth estimate was under -0.25.
VLEVSAKTLLGRFTEHGLTS gave a growth estimate of under -0.25.
VLEWDCRESTHITC was tested, and the growth estimate was under -0.25.
For VLFPVI, the growth estimate was under -0.25.
For VLFQSVGAVVNSSPHRDCKK, the growth estimate was under -0.25.
For VLGFQCYVTFVKC, the growth estimate was under -0.25.
In the case of VLGGSPGE, the growth estimate is reported as under -0.25.
